Assay results published in patent US12653862B2, “Anti-senescence compounds and uses thereof” (CLEARA BIOTECH B.V., priority 2020, dated 2026).
At least one peptide structure holds a part that was inferred or is arguable (an end, a ring closure or a residue). Square brackets hold non-standard residues; d marks the D form. Ends that are not written are not given here.

Experiment: Figure 11 B)

Substance: [dL][dT][dL][dR][dK][dE][dP][dA][dS][dE][dI][dA][dQ][dS][dI][dL][dE][dA][dY][dS][dQ][dN]G[dW][dA][dN][dR][dR][dS]GG[dK][dR][dP][dP][dP][dR][dR][dR][dQ][dR][dR][dK][dK][dR]G [CL03001]
- t1/2: 24 h
